{"source": "paper PMC3994028", "molecules": {"B1": {"name": "GFP-Tiam1 DH^wt (domain or fragment, UniProt Q60610 1048-1239)", "chain": "LLETERTYVKDLNCLMERYLKPLQKETFLTQDELDVLFGNLTEMVEFQVEFLKTLEDGVRLVPDLEKLEKVDQFKKVLFSLGGSFLYYADRFKLYSAFCASHTKVPKVLVKAKTDTAFKAFLDAQNPRQQHSSTLESYLIKPIQRVLKYPLLLRELFALTDAESEEHYHLDVAIKTMNKVASHINEMQKIHE"}, "B2": {"name": "GFP-Tiam1 DH^mt (domain or fragment, UniProt Q60610 1048-1239)", "chain": "B1 chain with L1R, L2S"}, "B3": {"name": "βPIX (endogenous, PC12 cells) (protein, UniProt O55043 1-646)", "chain": "MTDNANSQLVVRAKFNFQQTNEDELSFSKGDVIHVTRVEEGGWWEGTHNGRTGWFPSNYVREIKPSEKPVSPKSGTLKSPPKGFDTTAINKSYYNVVLQNILETEHEYSKELQSVLSTYLWPLQTSEKLSSANTSYLMGNLEEISSFQQVLVQSLEECTKSPEAQQRVGGCFLSLMPQMRTLYLAYCANHPSAVSVLTEHSEDLGEFMETKGASSPGILVLTTGLSKPFMRLDKYPTLLKELERHMEDYHPDRQDIQKSMTAFKNLSAQCQEVRKRKELELQILTEPIRSWEGDDIKTLGSVTYMSQVTIQCAGSEEKNERYLLLFPNLLLMLSASPRMSGFIYQGKLPTTGMTITKLEDSENHRNAFEISGSMIERILVSCNNQQDLHEWVEHLQRQTKVTSVSNPTIKPHSVPSHTLPSHPLTPSSKHADSKPVALTPAYHTLPHPSHHGTPHTTISWGPLEPPKTPKPWSLSCLRPAPPLRPSAALCYKEDLSRSPKTMKKLLPKRKPERKPSDEEFAVRKSTAALEEDAQILKVIEAYCTSAKTRQTLNSSSRKESAPQVLLPEEEKIIVEETKSNGQTVIEEKSLVDTVYALKDEVQELRQDNKKMKKSLEEEQRARKDLEKLVRKVLKNMNDPAWDETNL"}, "B4": {"name": "GFP-βPIX DH^wt (domain or fragment, UniProt O55043 100-276)", "chain": "NILETEHEYSKELQSVLSTYLWPLQTSEKLSSANTSYLMGNLEEISSFQQVLVQSLEECTKSPEAQQRVGGCFLSLMPQMRTLYLAYCANHPSAVSVLTEHSEDLGEFMETKGASSPGILVLTTGLSKPFMRLDKYPTLLKELERHMEDYHPDRQDIQKSMTAFKNLSAQCQEVRKR"}, "B5": {"name": "GFP-βPIX DH^mt (domain or fragment, UniProt O55043 100-276)", "chain": "B4 chain with L139R, L140R"}}, "key": {"[1]": {"molecular_target": "T1, βPIX (endogenous, PC12 cells) (rat (endogenous in PC12)) (UniProt O55043)", "T1 sequence": "B3 chain", "experiment": "co-IP; PC12 lysates immunoprecipitated with anti-βPIX monoclonal antibody, immunoblotted for NM IIB; cells transfected with GFP (control), GFP-βPIX DH^wt or GFP-βPIX DH^mt as competitor; also cells stimulated with 100 ng/ml NGF"}, "[2]": {"molecular_target": "non-muscle myosin IIB (NM IIB) (rat (endogenous in hippocampal neurons of Sprague-Dawley rats and in PC12)) (UniProt Q9JLT0)", "experiment": "co-IP; lysates of PC12 cells transfected with GFP-Cdc42V12 (constitutively active) for 24 h; immunoprecipitated with anti-NM IIB antibody, immunoblotted for βPIX, kalirin, ITSN"}, "[3]": {"molecular_target": "non-muscle myosin IIB (NM IIB) (rat (endogenous in hippocampal neurons of Sprague-Dawley rats and in PC12)) (UniProt Q9JLT0)", "experiment": "co-IP; PC12 lysates immunoprecipitated with anti-NM IIB antibody, immunoblotted for βPIX, kalirin, ITSN; cells treated with 50 µM BBS for the indicated times, transfected with GFP or GFP-RhoAV14, or stimulated with 100 ng/ml NGF (with GFP-Cdc42 WT or N17, GFP-Rac1, Myc-PAK1 WT or DN)"}, "[4]": {"molecular_target": "non-muscle myosin IIB (NM IIB) (rat (endogenous in hippocampal neurons of Sprague-Dawley rats and in PC12)) (UniProt Q9JLT0)", "experiment": "proximity ligation; Duolink in situ PLA on fixed, permeabilised cultured hippocampal neurons (growth cones); primary antibodies against βPIX (or kalirin) and NM IIB, or βPIX and GIT; with or without 50 µM BBS for 15 or 30 min"}, "[5]": {"molecular_target": "non-muscle myosin IIB (NM IIB) (rat (endogenous in hippocampal neurons of Sprague-Dawley rats and in PC12)) (UniProt Q9JLT0)", "experiment": "co-IP; PC12 lysates immunoprecipitated with anti-Tiam1 antibody, immunoblotted for NM IIB; cells transfected with GFP (control), GFP-Tiam1 DH^wt or GFP-Tiam1 DH^mt as competitor"}, "[6]": {"molecular_target": "non-muscle myosin IIB (NM IIB) (rat (endogenous in hippocampal neurons of Sprague-Dawley rats and in PC12)) (UniProt Q9JLT0)", "experiment": "co-IP; PC12 lysates immunoprecipitated with anti-NM IIB antibody, immunoblotted for βPIX, kalirin, ITSN; cells treated with 50 µM BBS for the indicated times, transfected with GFP or GFP-RhoAV14, or stimulated with 100 ng/ml NGF (with GFP-Cdc42 WT or N17, GFP-Rac1, Myc-PAK1 WT or DN)", "remark": "listed apart in the source"}, "[7]": {"molecular_target": "non-muscle myosin IIB (NM IIB) (rat (endogenous in hippocampal neurons of Sprague-Dawley rats and in PC12)) (UniProt Q9JLT0)", "experiment": "co-IP; PC12 lysates immunoprecipitated with anti-βPIX monoclonal antibody, immunoblotted for NM IIB; cells transfected with GFP (control), GFP-βPIX DH^wt or GFP-βPIX DH^mt as competitor; also cells stimulated with 100 ng/ml NGF"}}, "note": "Positions count from the first letter of the chain named. No constants are given. Whether binding was seen depends on the method and setting. In cells and extracts the contact can be indirect. Some entries that bind do so weakly or less than the wild type. For some of these results: Sequences can lack the tags named with a protein."}
{"molecule": "non-muscle myosin IIB (NM IIB) (from UniProt Q9JLT0 1-1976)", "values": [{"measurement": "binding", "setting": "[1]", "value": "binds"}]}
{"molecule": "kalirin (from UniProt P97924 1-2959)", "values": [{"measurement": "binding", "setting": "[2]", "value": "binds weakly"}, {"measurement": "binding", "setting": "[3]", "value": "binds"}, {"measurement": "binding", "setting": "[4]", "value": "binds"}]}
{"molecule": "B1", "values": [{"measurement": "binding", "setting": "[5]", "value": "binds"}]}
{"molecule": "B2", "values": [{"measurement": "binding", "setting": "[5]", "value": "binds"}]}
{"molecule": "B3", "values": [{"measurement": "binding", "setting": "[2]", "value": "binds weakly"}, {"measurement": "binding", "setting": "[6]", "value": "binds"}]}
{"molecule": "B4", "values": [{"measurement": "binding", "setting": "[7]", "value": "binds"}]}
{"molecule": "B5", "values": [{"measurement": "binding", "setting": "[7]", "value": "binds"}]}
